Data on 51 targets can be found in the supplement of paper PMC12595434, “Development of retinoid nuclear receptor pathway antagonists through targeting aldehyde dehydrogenase 1A3” (iScience, 2025).

Protein sequences, listed by entry. Tags and fused reporters are not part of them. Lines headed by an entry give the natural chain unless they say otherwise; changes in a name come on top.
UniProt P12109: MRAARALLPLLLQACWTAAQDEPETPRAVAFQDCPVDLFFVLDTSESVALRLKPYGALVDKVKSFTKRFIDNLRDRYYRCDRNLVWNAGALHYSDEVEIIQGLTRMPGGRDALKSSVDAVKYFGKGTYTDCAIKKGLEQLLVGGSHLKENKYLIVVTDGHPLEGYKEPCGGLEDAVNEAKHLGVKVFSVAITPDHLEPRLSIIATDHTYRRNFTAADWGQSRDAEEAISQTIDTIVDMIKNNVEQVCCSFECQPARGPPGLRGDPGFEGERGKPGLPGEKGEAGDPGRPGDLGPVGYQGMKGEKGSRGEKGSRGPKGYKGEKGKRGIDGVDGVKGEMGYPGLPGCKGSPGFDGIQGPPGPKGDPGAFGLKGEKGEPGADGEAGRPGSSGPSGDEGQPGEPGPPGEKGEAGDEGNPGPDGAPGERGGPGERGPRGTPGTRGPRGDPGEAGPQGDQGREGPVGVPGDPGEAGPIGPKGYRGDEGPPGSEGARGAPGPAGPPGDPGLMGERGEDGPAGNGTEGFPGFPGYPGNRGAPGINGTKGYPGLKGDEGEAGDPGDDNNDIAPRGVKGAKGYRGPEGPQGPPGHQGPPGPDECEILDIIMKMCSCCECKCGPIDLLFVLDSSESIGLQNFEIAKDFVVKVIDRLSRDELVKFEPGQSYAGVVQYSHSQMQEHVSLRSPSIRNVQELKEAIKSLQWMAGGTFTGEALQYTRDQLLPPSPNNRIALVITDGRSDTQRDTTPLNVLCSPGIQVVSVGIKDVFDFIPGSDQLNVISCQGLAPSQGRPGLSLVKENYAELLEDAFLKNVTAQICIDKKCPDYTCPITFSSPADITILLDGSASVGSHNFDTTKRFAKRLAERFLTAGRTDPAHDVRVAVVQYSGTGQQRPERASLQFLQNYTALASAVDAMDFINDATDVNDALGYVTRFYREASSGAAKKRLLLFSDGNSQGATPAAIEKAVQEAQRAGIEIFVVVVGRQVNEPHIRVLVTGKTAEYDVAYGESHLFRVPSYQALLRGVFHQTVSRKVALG
UniProt P13797: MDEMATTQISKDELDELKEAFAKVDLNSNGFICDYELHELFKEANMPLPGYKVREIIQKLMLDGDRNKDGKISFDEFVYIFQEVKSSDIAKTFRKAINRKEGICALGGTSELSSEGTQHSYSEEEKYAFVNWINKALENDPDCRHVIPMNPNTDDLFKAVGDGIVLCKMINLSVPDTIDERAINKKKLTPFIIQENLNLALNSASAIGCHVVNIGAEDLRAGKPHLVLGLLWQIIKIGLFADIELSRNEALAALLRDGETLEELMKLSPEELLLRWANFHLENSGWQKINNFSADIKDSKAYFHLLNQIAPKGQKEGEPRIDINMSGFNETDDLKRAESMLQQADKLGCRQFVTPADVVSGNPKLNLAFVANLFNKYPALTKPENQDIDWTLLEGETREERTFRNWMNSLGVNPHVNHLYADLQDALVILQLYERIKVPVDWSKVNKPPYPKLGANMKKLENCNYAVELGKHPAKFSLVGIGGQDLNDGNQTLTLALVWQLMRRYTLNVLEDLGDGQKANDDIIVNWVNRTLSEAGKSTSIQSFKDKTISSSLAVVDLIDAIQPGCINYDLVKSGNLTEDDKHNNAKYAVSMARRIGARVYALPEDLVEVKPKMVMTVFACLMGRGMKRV
UniProt P12270, whole entry: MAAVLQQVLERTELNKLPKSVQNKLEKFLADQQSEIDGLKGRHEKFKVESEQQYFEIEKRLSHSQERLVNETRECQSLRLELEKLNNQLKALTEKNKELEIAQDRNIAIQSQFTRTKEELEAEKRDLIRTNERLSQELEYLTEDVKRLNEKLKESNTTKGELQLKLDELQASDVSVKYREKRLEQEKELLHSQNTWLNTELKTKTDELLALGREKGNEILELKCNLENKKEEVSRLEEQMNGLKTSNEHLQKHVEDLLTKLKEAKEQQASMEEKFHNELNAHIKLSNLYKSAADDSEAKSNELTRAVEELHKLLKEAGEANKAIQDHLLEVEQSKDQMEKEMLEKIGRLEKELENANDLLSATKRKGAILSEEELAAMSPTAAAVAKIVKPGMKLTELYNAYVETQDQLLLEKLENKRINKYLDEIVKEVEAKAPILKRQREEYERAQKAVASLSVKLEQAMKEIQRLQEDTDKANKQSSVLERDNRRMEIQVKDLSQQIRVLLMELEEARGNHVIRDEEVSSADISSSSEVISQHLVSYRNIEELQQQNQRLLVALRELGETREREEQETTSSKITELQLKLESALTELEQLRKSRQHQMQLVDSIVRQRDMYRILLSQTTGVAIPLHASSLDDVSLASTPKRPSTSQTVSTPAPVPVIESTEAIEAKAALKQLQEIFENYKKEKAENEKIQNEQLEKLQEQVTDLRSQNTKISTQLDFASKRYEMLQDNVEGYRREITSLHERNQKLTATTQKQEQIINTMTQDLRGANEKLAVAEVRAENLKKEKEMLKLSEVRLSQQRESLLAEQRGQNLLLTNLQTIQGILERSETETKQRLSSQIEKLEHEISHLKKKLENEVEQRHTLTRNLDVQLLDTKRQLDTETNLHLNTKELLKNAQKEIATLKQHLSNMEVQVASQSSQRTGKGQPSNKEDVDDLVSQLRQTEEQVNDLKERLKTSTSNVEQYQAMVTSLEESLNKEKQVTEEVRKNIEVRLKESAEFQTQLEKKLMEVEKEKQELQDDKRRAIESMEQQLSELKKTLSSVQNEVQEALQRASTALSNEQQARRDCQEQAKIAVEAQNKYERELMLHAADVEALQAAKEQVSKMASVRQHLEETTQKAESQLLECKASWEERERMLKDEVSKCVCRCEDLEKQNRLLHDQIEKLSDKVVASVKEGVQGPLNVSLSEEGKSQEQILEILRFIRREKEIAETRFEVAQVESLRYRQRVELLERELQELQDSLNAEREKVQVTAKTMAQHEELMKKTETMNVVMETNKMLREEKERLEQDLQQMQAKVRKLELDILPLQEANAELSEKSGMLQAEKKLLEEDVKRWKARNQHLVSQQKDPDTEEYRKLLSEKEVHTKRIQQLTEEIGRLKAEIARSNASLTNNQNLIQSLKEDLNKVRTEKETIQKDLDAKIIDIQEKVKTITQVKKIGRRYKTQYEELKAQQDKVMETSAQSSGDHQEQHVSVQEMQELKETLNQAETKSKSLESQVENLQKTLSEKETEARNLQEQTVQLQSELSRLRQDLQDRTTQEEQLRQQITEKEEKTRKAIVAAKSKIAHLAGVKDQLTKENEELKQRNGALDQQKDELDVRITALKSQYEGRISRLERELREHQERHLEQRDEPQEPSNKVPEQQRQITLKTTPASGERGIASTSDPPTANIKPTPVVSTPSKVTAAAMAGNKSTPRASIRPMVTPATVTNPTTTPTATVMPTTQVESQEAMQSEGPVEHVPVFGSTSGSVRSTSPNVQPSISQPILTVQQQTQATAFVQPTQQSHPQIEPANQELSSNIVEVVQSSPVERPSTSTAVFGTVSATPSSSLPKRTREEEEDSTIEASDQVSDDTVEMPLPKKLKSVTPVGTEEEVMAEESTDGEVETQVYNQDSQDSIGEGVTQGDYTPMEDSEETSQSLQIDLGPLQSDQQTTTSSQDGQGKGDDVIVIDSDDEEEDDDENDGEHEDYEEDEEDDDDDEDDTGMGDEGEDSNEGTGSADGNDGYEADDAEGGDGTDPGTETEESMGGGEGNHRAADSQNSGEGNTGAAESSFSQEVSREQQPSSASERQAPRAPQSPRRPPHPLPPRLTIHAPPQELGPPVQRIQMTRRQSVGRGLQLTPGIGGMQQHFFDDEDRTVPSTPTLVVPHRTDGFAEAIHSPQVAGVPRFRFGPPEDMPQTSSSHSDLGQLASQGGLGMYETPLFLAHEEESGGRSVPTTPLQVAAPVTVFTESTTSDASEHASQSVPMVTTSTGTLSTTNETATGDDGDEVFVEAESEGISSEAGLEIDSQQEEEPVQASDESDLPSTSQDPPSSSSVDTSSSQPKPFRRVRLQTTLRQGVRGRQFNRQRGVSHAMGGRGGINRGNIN
UniProt P10644, whole entry: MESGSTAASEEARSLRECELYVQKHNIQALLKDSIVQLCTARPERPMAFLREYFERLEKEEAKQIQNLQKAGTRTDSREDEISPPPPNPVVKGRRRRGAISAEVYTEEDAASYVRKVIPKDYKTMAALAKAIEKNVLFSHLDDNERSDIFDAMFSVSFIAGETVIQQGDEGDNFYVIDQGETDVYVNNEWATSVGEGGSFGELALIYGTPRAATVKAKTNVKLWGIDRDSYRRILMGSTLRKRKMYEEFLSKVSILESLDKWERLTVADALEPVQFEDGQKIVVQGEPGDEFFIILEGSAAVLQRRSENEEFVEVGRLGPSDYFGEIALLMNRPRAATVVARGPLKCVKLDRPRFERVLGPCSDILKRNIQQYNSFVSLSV
UniProt P11387: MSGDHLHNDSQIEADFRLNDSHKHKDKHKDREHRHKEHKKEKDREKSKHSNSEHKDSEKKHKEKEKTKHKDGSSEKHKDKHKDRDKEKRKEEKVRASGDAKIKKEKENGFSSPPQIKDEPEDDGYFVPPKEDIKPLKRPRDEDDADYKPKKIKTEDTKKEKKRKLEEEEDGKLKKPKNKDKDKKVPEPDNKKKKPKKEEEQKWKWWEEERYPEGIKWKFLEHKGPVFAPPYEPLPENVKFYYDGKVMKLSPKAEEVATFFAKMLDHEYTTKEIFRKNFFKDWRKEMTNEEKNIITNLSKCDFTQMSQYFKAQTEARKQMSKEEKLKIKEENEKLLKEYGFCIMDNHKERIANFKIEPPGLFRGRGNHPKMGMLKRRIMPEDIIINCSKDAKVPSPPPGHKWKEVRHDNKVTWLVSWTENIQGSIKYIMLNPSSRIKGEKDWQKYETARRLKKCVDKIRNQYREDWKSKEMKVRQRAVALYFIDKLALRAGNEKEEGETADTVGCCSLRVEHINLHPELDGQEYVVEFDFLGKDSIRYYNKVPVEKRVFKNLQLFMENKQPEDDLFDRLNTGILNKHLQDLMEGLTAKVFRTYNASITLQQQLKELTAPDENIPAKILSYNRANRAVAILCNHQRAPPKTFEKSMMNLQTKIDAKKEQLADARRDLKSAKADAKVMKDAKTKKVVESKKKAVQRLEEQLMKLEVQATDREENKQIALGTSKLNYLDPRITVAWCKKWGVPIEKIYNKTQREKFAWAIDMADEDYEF
UniProt P14635, whole entry: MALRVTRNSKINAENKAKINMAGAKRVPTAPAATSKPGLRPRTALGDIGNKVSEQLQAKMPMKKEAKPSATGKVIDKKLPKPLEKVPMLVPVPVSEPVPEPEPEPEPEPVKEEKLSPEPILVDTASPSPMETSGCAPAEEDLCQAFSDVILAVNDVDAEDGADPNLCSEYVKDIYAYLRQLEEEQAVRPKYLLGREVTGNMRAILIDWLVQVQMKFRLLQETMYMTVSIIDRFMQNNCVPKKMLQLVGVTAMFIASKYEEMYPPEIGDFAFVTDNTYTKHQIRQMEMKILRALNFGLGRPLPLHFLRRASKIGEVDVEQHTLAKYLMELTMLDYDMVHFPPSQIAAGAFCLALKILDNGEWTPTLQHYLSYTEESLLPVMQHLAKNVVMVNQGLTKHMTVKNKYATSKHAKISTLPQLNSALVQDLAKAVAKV
UniProt P07311: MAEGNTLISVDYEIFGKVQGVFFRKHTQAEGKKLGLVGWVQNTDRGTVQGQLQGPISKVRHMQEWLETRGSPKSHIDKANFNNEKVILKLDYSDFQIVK
UniProt P18031: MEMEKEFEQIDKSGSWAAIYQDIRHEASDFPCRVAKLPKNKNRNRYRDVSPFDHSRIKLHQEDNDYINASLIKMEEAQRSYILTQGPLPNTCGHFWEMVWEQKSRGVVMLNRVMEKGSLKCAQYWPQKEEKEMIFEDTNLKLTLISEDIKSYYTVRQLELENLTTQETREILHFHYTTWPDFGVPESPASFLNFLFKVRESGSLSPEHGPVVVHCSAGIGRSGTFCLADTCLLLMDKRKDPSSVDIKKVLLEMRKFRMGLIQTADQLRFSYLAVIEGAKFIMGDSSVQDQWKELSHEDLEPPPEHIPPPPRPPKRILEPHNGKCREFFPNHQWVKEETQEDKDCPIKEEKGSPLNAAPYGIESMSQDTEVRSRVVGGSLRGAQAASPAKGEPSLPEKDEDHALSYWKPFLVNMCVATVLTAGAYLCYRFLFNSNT
UniProt P15408: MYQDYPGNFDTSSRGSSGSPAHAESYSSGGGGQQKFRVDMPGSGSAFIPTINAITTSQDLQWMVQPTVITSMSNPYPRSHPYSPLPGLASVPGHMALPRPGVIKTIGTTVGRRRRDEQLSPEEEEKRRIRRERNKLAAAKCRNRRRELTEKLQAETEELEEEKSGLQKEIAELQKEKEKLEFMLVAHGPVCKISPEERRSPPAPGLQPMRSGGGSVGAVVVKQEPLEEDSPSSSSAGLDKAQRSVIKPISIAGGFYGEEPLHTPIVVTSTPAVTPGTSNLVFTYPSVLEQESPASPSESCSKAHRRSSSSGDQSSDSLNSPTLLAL

Compound in the assay: CCc1cnccc1C(=O)Nc1cc2c(cc1F)NC(=O)CC2
Put plainly: melting temperature shift (DMSO Tm minus MBE1-treated Tm) in cellular thermal proteome profiling; higher = less thermal stabilization by MBE1 (negative = stabilized by MBE1). The note with it: A375.

This is one part of the list. The data scatter; read single values as rough.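 Many melting curves are irregular; where none melted, Tm was taken as 64 °C.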

For TOP2A (UniProt P11388), the melting temperature shift was -0.602 °C (MBE1 concentration: 100 nM) and -0.48 °C (MBE1 concentration: 1 uM).
Regarding UniProt P12109, the melting temperature shift by setting is: (MBE1 concentration: 100 nM) -0.966 °C; (MBE1 concentration: 1 uM) 0.502 °C.
Turning to BTF3 (UniProt P20290), the melting temperature shift reads like this: (MBE1 concentration: 100 nM) -1.75 °C; (MBE1 concentration: 1 uM) -5.7 °C.
The like results for PLS3 (UniProt P13797) were, in that order, -0.476 °C and 0.00671 °C.
On to UniProt P10588, for which the melting temperature shift by setting is: (MBE1 concentration: 100 nM) 0.281 °C; (MBE1 concentration: 1 uM) 0.501 °C.
The like results for NELFE (UniProt P18615) were, in that order, -1.65 °C and -2.31 °C.
For CD46 (UniProt P15529), the melting temperature shift is, setting by setting: (MBE1 concentration: 100 nM) -2.01 °C; (MBE1 concentration: 1 uM) -2.07 °C.
The matching figures for CTSL (UniProt P07711): -1.64 °C and -1.04 °C.
As to PDHB (UniProt P11177), the melting temperature shift was determined as 1.69 °C (MBE1 concentration: 100 nM) and 1.53 °C (MBE1 concentration: 1 uM).
As for CDK4 (UniProt P11802), the melting temperature shift reads like this: (MBE1 concentration: 100 nM) -2.08 °C; (MBE1 concentration: 1 uM) 0.0376 °C.
The like results for ABCB1 (UniProt P08183) were, in that order, -0.837 °C and -0.678 °C.
The like results for POU2F1 (UniProt P14859) were, in that order, -0.00611 °C and -0.415 °C.
The like results for UniProt P09211 were, in that order, -0.738 °C and 0.288 °C.
As to PABPC1 (UniProt P11940), the melting temperature shift runs as follows: (MBE1 concentration: 100 nM) -0.0244 °C; (MBE1 concentration: 1 uM) -0.232 °C.
Regarding PC (UniProt P11498), the melting temperature shift (MBE1 concentration: 100 nM) is 0.971 °C and the melting temperature shift (MBE1 concentration: 1 uM) is 0.531 °C.
In the case of UniProt P20036, the melting temperature shift runs as follows: (MBE1 concentration: 100 nM) -4.6 °C; (MBE1 concentration: 1 uM) -3.3 °C.
The matching figures for RPA2 (UniProt P15927): -2.76 °C and 0.794 °C.
As for ANXA5 (UniProt P08758), the melting temperature shift is 0.36 °C (MBE1 concentration: 100 nM) and -0.165 °C (MBE1 concentration: 1 uM).
The like results for DMD (UniProt P11532) were, in that order, -1.12 °C and 1.01 °C.
The like results for GLB1 (UniProt P16278) were, in that order, -1.64 °C and -0.652 °C.
As to TPR (UniProt P12270), the melting temperature shift by setting is: (MBE1 concentration: 100 nM) 0.0855 °C; (MBE1 concentration: 1 uM) -1.01 °C.
The like results for UniProt P17010 were, in that order, 0.179 °C and -2.13 °C.
Regarding LAMB1 (UniProt P07942), the melting temperature shift was -0.818 °C (MBE1 concentration: 100 nM) and -0.107 °C (MBE1 concentration: 1 uM).
The like results for PRKAR1A (UniProt P10644) were, in that order, 0.623 °C and 0.238 °C.
In the case of RPS2 (UniProt P15880), the melting temperature shift runs as follows: (MBE1 concentration: 100 nM) -0.946 °C; (MBE1 concentration: 1 uM) 0.934 °C.
The like results for IGF1R (UniProt P08069) were, in that order, -0.0916 °C and -0.403 °C.
The matching figures for TOP1 (UniProt P11387): -0.173 °C and -0.0641 °C.
The matching figures for UniProt P20265: -0.448 °C and -0.73 °C.
For the target RPL35A (UniProt P18077), the melting temperature shift by setting is: (MBE1 concentration: 100 nM) -0.0672 °C; (MBE1 concentration: 1 uM) -0.0977 °C.
For the target ARSA (UniProt P15289), the melting temperature shift runs as follows: (MBE1 concentration: 100 nM) 0 °C; (MBE1 concentration: 1 uM) -2.82 °C.
The matching figures for DSP (UniProt P15924): 1.5 °C and 3.09 °C.
The matching figures for CCNB1 (UniProt P14635): -1.7 °C and 0.429 °C.
The matching figures for ACYP1 (UniProt P07311): -0.429 °C and -0.912 °C.
As for PTPN1 (UniProt P18031), the melting temperature shift was -0.414 °C (MBE1 concentration: 100 nM) and -0.616 °C (MBE1 concentration: 1 uM).
The matching figures for FOSL2 (UniProt P15408): -1.08 °C and -5.56 °C.
The matching figures for UniProt P17612: -0.174 °C and 0.488 °C.
Consider ASNS (UniProt P08243), for which the melting temperature shift was -0.295 °C (MBE1 concentration: 100 nM) and 0.0672 °C (MBE1 concentration: 1 uM).
The matching figures for PFKM (UniProt P08237): -0.688 °C and -0.462 °C.
The like results for PKM (UniProt P14618) were, in that order, -1.06 °C and -0.63 °C.
The like results for CKB (UniProt P12277) were, in that order, -1.95 °C and 0.434 °C.
CTSD (UniProt P07339): the melting temperature shift runs as follows: (MBE1 concentration: 100 nM) -1.71 °C; (MBE1 concentration: 1 uM) -0.383 °C.
Take FDX1 (UniProt P10109): the melting temperature shift is, setting by setting: (MBE1 concentration: 100 nM) 0.806 °C; (MBE1 concentration: 1 uM) -3.64 °C.
The matching figures for XRCC6 (UniProt P12956): -0.741 °C and -0.774 °C.
The like results for RPL17 (UniProt P18621) were, in that order, -0.513 °C and 0.879 °C.
As for PTPN2 (UniProt P17706), the melting temperature shift (MBE1 concentration: 100 nM) is -0.32 °C and the melting temperature shift (MBE1 concentration: 1 uM) was -0.706 °C.
The like results for ITGB5 (UniProt P18084) were, in that order, -2.07 °C and -0.0855 °C.
Turning to UniProt P17098, the melting temperature shift (MBE1 concentration: 100 nM) is 2.27 °C and the melting temperature shift (MBE1 concentration: 1 uM) stood at 2.15 °C.
The like results for RPL7 (UniProt P18124) were, in that order, -0.0794 °C and 0.366 °C.
The matching figures for ANXA4 (UniProt P09525): 0.525 °C and 0.147 °C.
The matching figures for VIM (UniProt P08670): -0.218 °C and -0.61 °C.
In the case of PTPRF (UniProt P10586), the melting temperature shift (MBE1 concentration: 100 nM) was 1.25 °C and the melting temperature shift (MBE1 concentration: 1 uM) is 0.55 °C.
